Experimental data as given in PMC4287497, “Phosphorylation of Elp1 by Hrr25 Is Required for Elongator-Dependent tRNA Modification in Yeast” (PLoS Genetics, 2015).
No constants are given. Whether binding was seen depends on the method and setting. In cells and extracts the contact can be indirect. Some entries that bind do so weakly or less than the wild type. For some of these results: Tags and fused reporters may be left off the sequences shown.

B1: Kti12-HA6 (natural protein, S. cerevisiae, UniProt P34253 1-313, looked up)
chain: MPLVLFTGYPCSGKTTLAKHLVQLLQSKIDATPSLSKYSITYHSDESLGIKHSDYITSQDERKLRSEIISAVKRDLSKNKIVIVDSLNYIKGFRYQLHCEVKNLSTTFCVIQTLCPPETIFEWNKTSNPNPWEPELLNQLIQRYEEPNSSNRWDSPLFAILTPQDNITDYIDDICKVVFQTSKSAKNSGHNDPLSKGLQKPNSATVLKPASQSNFIQVLDIETSKIIKTIMNHIKSLTSIGGVSNGTRVIVSEGITDINDDGCFFVDLPIGNVVTLAQLQRLKRQFINFNKLRDIDQDRIGPLFADYLNKNLN
notes: Kti12, accessory protein of Elongator, S. cerevisiae; also called HA-tagged Kti12; source: S. cerevisiae KTI12-HA6 strains, in cell extract
B2: Hrr25 protein kinase (casein kinase I), endogenous (enzyme, UniProt P29295 1-494)
chain: MDLRVGRKFRIGRKIGSGSFGDIYHGTNLISGEEVAIKLESIRSRHPQLDYESRVYRYLSGGVGIPFIRWFGREGEYNAMVIDLLGPSLEDLFNYCHRRFSFKTVIMLALQMFCRIQYIHGRSFIHRDIKPDNFLMGVGRRGSTVHVIDFGLSKKYRDFNTHRHIPYRENKSLTGTARYASVNTHLGIEQSRRDDLESLGYVLIYFCKGSLPWQGLKATTKKQKYDRIMEKKLNVSVETLCSGLPLEFQEYMAYCKNLKFDEKPDYLFLARLFKDLSIKLEYHNDHLFDWTMLRYTKAMVEKQRDLLIEKGDLNANSNAASASNSTDNKSETFNKIKLLAMKKFPTHFHYYKNEDKHNPSPEEIKQQTILNNNAASSLPEELLNALDKGMENLRQQQPQQQVQSSQPQPQPQQLQQQPNGQRPNYYPEPLLQQQQRDSQEQQQQVPMATTRATQYPPQINSNNFNTNQASVPPQMRSNPQQPPQDKPAGQSIWL

Legend:
[1] = biological target: T1, Elp2-myc3 (S. cerevisiae) (UniProt P42935); assay: co-IP; Elp2-myc immunoprecipitated from extracts of elp1Δ yeast strains carrying plasmid-borne ELP1-6HA alleles (antibody coupled to Dynabeads, B60 buffer); Western blot with anti-myc, anti-HA and anti-Hrr25
T1 sequence: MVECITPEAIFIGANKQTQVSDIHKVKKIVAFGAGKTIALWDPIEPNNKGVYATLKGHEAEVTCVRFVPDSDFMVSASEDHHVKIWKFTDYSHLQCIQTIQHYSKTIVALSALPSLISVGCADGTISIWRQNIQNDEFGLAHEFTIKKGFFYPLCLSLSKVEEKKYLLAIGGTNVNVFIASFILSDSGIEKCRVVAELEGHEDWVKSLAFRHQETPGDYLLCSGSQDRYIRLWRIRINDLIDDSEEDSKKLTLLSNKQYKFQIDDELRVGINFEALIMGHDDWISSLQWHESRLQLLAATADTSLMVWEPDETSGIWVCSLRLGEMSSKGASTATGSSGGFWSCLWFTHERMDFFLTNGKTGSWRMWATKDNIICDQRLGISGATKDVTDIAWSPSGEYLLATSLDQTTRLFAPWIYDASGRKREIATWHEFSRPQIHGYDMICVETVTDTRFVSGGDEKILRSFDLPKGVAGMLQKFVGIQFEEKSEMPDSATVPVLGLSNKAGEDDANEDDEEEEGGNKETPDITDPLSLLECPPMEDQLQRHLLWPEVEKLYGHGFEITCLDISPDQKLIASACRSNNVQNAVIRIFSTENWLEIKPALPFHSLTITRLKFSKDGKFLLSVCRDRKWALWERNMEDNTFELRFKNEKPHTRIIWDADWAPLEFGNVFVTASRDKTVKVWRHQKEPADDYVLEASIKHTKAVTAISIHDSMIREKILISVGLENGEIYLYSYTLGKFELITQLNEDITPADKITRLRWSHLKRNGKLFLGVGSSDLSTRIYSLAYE

[2] = biological target: T2, Elp1-6HA (wild-type, from YCplac111-ELP1-6HA) (S. cerevisiae) (UniProt Q06706); assay: as above
T2 sequence: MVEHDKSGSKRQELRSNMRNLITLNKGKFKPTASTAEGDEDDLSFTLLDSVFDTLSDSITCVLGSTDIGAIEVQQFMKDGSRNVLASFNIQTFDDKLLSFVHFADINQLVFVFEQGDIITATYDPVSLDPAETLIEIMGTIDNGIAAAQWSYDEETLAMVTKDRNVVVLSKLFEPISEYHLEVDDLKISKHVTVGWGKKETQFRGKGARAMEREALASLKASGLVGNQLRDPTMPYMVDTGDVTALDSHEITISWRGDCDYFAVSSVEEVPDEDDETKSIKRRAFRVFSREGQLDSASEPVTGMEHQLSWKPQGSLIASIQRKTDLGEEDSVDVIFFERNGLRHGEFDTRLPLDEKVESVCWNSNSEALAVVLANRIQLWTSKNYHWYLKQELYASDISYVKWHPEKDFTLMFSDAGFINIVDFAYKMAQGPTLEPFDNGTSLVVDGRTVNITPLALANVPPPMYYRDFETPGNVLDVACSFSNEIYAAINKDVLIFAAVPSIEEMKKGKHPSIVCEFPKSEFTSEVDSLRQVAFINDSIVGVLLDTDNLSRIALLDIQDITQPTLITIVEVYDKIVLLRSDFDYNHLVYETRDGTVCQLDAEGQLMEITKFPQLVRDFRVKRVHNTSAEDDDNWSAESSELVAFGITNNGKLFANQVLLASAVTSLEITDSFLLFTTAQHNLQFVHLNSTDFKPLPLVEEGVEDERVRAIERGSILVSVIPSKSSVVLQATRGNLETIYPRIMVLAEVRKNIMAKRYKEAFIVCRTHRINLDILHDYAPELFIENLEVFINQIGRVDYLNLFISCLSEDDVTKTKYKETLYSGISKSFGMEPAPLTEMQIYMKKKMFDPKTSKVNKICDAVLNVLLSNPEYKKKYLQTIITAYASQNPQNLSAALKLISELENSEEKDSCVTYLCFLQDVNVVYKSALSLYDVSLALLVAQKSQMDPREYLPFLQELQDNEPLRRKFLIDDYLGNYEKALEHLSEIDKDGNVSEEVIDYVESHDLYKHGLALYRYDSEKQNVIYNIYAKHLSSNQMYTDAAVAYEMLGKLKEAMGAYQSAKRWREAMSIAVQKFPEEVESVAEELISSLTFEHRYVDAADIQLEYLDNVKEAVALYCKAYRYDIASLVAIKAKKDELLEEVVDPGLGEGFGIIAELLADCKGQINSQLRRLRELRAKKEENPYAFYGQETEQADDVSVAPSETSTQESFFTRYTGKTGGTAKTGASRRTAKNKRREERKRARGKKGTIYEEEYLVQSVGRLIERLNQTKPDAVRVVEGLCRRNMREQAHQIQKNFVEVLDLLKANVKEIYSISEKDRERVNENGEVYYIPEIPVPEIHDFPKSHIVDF

| binding [1] | binding [2] | Binder |
| --- | --- | --- |
| binds | binds | B1 |
| binds | binds | B2 |
